# Laboratory results from publication PMC4319893 (PLoS ONE, 2015).
# Experiment: general procedure: Fmoc solid-phase peptide synthesis; preloaded Fmoc-Val-Wang-resin or Val-2CT-resin (0.6–0.7 mmol/g, 100–200 mesh); HBTU/DIPEA
# Conditions: conjugation step, TFA salts
substance,measurement,setting,value
Cy5-Cys-N-dimer,final HPLC purity,"ELSD, UV",>95%
same,conjugation yield,,75%
